From the supplement of paper PMC10849652
This is one part of the list.

The chains behind the UniProt entries cited, without tags or fusion partners. Where a name states a change or a piece, a line headed by the entry shows the natural chain unless it says otherwise.
UniProt P52657, whole entry, looked up: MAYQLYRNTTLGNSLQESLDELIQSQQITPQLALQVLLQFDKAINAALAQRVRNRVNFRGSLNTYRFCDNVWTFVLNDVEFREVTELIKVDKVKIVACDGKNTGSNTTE
UniProt Q9Y5Q8: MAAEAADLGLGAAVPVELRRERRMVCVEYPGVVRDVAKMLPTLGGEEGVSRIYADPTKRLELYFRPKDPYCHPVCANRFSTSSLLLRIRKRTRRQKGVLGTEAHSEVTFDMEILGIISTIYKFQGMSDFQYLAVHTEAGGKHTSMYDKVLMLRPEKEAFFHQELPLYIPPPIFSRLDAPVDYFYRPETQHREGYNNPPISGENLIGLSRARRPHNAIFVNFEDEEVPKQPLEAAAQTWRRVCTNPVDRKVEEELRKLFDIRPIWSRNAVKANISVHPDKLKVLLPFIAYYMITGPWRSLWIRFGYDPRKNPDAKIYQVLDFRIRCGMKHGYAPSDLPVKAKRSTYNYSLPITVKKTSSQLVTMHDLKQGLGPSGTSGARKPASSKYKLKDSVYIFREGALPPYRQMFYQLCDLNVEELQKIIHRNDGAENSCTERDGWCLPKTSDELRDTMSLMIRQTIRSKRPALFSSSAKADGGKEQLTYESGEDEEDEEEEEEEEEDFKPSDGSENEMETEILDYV
UniProt Q9BT25: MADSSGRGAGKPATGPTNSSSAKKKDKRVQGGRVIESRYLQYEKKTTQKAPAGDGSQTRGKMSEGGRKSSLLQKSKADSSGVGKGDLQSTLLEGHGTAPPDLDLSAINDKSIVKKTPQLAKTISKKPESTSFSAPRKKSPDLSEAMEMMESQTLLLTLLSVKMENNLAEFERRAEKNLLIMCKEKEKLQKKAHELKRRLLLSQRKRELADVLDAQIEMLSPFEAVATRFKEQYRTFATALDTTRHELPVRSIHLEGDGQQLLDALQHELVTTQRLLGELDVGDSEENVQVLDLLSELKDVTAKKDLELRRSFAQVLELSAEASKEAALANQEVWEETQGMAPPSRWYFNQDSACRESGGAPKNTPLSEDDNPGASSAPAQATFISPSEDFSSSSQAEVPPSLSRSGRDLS
UniProt P69892: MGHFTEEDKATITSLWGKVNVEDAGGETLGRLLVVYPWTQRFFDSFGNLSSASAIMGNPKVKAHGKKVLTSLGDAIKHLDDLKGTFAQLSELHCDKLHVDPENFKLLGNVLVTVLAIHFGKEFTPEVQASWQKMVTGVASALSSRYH
UniProt Q7Z4H3: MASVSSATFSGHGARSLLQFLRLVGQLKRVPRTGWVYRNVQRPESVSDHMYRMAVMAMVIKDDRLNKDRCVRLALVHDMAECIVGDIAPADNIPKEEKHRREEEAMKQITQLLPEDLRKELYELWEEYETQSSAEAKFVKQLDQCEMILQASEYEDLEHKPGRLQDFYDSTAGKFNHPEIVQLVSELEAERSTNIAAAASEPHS
UniProt Q9Y450, whole entry, looked up: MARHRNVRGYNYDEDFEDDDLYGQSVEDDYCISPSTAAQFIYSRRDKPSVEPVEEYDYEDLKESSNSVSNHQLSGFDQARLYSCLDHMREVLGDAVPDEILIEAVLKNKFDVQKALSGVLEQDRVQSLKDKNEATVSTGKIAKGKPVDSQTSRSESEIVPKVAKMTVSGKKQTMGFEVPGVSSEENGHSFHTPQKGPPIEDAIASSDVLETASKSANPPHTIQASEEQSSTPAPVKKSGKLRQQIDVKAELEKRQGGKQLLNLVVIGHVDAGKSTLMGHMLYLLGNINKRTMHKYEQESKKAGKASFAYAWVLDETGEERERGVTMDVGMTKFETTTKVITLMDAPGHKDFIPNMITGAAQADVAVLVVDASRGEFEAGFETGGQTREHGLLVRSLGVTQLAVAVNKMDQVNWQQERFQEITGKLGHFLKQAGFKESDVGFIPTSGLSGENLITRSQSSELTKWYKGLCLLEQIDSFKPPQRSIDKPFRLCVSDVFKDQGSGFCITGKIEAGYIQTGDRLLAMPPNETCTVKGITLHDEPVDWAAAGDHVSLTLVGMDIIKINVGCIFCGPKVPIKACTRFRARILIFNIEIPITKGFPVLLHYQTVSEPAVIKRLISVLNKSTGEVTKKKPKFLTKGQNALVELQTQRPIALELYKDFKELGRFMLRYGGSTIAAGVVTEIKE
UniProt O75791: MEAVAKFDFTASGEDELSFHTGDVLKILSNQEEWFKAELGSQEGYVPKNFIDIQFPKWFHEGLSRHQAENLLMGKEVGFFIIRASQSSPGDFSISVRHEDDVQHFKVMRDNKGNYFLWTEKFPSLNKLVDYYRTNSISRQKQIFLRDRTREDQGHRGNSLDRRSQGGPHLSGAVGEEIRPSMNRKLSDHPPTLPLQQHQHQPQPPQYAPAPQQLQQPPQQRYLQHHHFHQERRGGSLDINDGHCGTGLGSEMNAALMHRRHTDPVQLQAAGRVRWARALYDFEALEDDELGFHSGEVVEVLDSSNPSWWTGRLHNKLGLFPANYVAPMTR
UniProt P02008: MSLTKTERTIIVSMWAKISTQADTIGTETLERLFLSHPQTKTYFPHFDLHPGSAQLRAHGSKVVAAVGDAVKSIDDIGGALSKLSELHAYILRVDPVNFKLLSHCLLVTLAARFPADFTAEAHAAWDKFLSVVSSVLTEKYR
UniProt Q92522: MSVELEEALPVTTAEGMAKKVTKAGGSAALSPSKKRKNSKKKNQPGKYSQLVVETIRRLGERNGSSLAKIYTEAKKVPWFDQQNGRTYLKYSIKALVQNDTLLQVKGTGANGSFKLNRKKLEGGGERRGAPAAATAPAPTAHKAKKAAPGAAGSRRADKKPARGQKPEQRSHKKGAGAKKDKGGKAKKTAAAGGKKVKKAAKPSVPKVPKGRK
UniProt O00165, whole entry, looked up: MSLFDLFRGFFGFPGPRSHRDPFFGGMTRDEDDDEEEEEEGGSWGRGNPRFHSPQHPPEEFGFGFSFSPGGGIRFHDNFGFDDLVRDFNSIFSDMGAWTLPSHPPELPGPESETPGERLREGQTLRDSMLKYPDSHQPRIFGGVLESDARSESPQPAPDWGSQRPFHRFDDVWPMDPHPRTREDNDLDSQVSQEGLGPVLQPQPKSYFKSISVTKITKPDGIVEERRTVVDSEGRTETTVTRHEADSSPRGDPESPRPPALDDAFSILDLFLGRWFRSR
UniProt P15170, whole entry, looked up: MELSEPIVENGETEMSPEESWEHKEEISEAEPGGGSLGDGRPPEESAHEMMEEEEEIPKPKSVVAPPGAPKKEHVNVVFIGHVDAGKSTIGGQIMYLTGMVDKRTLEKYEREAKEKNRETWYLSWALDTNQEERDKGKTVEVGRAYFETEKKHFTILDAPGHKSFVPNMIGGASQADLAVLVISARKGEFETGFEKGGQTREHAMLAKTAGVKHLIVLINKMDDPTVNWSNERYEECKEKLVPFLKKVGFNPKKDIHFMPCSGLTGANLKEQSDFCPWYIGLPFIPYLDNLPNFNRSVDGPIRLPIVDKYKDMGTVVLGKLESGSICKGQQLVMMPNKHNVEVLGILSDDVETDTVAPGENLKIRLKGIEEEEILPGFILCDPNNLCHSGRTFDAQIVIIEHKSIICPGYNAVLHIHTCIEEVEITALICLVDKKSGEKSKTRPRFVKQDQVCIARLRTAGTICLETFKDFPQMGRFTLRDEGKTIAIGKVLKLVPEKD
UniProt Q9UBN7: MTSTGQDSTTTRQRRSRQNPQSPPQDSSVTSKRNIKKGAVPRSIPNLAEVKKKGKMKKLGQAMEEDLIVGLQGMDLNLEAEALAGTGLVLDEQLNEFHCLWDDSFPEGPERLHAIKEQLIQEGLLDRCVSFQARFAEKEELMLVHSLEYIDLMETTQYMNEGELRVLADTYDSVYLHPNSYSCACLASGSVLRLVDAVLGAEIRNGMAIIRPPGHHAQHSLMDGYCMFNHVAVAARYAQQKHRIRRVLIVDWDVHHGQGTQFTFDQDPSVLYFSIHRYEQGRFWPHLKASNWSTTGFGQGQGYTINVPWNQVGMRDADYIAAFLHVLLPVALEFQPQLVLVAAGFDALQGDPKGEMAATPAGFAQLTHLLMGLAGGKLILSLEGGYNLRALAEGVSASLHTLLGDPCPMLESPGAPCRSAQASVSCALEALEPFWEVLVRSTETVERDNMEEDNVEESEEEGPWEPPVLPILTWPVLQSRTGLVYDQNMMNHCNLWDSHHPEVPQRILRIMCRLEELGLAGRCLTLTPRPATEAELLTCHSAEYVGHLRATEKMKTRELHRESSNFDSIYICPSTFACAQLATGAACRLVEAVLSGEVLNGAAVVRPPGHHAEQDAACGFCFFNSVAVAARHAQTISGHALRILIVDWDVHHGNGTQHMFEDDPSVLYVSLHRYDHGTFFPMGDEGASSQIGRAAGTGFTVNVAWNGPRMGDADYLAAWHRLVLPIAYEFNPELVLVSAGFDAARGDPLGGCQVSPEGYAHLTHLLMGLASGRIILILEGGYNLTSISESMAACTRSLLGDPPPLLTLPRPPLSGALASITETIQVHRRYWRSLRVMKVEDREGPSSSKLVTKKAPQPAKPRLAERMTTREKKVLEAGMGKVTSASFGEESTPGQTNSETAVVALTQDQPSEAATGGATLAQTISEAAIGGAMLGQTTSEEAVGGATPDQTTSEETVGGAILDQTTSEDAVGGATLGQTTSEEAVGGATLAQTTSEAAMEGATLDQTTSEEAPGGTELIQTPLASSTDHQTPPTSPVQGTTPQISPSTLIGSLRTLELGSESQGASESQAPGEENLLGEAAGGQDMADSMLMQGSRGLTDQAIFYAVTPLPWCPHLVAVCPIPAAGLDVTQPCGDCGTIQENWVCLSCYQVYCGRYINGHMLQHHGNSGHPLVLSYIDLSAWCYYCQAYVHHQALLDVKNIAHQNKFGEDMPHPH
UniProt Q8NEC7: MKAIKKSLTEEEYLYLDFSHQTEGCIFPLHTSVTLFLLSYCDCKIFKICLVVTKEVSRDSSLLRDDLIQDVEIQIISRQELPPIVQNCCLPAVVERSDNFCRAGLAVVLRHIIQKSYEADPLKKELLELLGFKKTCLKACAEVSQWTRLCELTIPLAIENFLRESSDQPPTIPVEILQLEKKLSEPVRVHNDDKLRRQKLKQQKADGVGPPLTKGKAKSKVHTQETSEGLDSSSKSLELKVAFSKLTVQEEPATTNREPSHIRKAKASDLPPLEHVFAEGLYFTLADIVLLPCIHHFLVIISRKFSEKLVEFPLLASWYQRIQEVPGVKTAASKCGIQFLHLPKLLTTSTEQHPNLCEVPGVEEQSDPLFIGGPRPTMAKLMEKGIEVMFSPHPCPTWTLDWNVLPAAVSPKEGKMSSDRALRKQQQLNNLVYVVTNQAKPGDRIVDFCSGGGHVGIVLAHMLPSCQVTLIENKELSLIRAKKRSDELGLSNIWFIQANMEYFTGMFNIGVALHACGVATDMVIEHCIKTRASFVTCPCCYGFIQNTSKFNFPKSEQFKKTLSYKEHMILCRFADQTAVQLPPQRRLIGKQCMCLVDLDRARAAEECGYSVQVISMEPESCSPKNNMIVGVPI
UniProt Q92759: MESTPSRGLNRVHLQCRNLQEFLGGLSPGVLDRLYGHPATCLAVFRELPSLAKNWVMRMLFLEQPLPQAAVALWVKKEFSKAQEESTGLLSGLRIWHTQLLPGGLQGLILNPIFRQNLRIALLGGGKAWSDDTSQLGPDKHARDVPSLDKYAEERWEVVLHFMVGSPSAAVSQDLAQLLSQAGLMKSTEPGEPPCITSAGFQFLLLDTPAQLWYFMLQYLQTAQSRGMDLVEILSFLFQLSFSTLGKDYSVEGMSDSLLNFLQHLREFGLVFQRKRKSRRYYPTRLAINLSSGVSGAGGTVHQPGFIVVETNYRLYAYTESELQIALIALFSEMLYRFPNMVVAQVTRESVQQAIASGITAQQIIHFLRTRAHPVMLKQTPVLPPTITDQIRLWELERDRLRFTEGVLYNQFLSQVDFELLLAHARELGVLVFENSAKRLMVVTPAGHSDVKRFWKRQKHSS
UniProt Q68CZ6: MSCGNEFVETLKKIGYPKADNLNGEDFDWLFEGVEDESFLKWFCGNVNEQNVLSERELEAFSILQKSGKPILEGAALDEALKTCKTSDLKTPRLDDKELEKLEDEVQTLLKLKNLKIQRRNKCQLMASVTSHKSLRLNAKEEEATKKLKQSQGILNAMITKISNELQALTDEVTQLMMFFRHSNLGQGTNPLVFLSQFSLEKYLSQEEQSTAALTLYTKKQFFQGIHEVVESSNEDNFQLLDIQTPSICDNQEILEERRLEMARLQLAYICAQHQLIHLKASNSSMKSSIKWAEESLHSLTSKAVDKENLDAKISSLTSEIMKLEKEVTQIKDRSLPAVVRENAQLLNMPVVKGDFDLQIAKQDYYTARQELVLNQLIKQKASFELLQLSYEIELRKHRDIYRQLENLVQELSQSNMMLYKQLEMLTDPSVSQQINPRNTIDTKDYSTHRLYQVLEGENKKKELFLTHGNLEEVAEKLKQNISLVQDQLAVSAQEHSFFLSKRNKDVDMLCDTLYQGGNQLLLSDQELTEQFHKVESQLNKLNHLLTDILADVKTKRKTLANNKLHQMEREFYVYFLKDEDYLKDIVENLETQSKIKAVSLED
UniProt P69891: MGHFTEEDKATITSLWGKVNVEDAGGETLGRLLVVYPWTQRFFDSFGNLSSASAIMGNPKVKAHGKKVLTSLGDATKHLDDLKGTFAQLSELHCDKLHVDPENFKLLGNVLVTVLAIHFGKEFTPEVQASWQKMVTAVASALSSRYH

How the values were obtained:
Experiment in all cases: log2 fold change, soluble protein after heating vs DMSO (PISA); higher = thermal stabilisation; K562 lysate, 10 uM; active = over 0.2 and 3.5 SD of the protein, either way, in both replicates (recomputed)
[1] = compound: C1=CC=C(C=C1)[C@H](COC2=CC3=C(C=C2)NC(=O)N3)NC(=O)C4=CC=CN(C4=O)CC5=CC(=C(C=C5)F)F
Procedure, shortened: (§1)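 Soluble protein was defined as the supernatant remaining after 21,000xg for 90 min, following pooling of heated aliquots and adjustment to 0.5% NP-40 at 4°C. Before that, crude K562 extract at 1 mg/mL protein in PBS pH 7.4 with 1 mM MgCl2 was treated with 10 μM compound for 30 min and heated for 3 min across 48°C-58°C. Quantification used TMTpro 16plex LC-MS/MS with channel sums equalised, and values are log-two fold changes in thermal stability relative to solvent controls from duplicates.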

[2] = compound: CC1=C(SC2=C1C(=N[C@H](C3=NN=C(N32)C)CC(=O)N)C4=CC=C(C=C4)Cl)C
Procedure, shortened: as §1

[3] = compound: CC1=C2C(=CC=C1)N=C(N(C2=O)C3=CC=CC=C3C)CN4C=NC5=C(N=CN=C54)N
Procedure, shortened: as §1

[4] = compound: Cc1sc2c(c1C)C(c1ccc(Cl)cc1)=N[C@@H](CC(=O)OC(C)(C)C)c1nnc(C)n1-2
Procedure, shortened: as §1

[5] = compound: c1ccc([C@@H]2C[C@H]2NC2CCNCC2)cc1
Procedure, shortened: as §1

Measured: log2 fold change

GTF2A2 (UniProt P52657)
inactive: [1] 0.018 | [2] -0.017 | [3] 0.002 | [4] -0.042 | [5] -0.127

GTF3C5 isoform 3 (UniProt Q9Y5Q8)
inactive: [1] -0.024 | [2] 0.001 | [3] 0.019 | [4] 0.056 | [5] 0.016

HAUS8 (UniProt Q9BT25)
inactive: [1] 0.016 | [2] -0.029 | [3] 0 | [4] 0.009 | [5] 0

HBG2 (UniProt P69892)
inactive: [1] 0.024 | [2] -0.08 | [3] 0.002 | [4] -0.001 | [5] 0.016

HDDC2 (UniProt Q7Z4H3)
inactive: [1] 0.011 | [2] -0.023 | [3] -0.032 | [4] 0.045 | [5] 0.03

HBS1L isoform 2 (UniProt Q9Y450)
inactive: [1] 0.076 | [2] 0.042 | [3] -0.031 | [4] -0.033 | [5] 0.02

HAUS1 (UniProt Q96CS2)
inactive: [1] 0 | [2] -0.07 | [3] 0.02 | [4] 0 | [5] 0.083

GRAP2 (UniProt O75791)
inactive: [1] -0.006 | [2] 0.06 | [3] 0.003 | [4] 0.017 | [5] 0.123

UniProt H0YHG0
inactive: [1] 0.051 | [2] 0.024 | [3] -0.011 | [4] -0.01 | [5] -0.074

HBZ (UniProt P02008)
inactive: [1] -0.026 | [2] -0.027 | [3] 0.025 | [4] 0.01 | [5] 0.039

H1FX (UniProt Q92522)
inactive: [1] 0.035 | [2] -0.034 | [3] -0.026 | [4] 0.034 | [5] 0.019

HAX1 (UniProt O00165)
inactive: [1] -0.063 | [2] -0.029 | [3] 0.026 | [4] 0.033 | [5] 0.017

GSPT1 isoform 3 (UniProt P15170)
inactive: [1] 0.004 | [2] 0.014 | [3] -0.001 | [4] 0.006 | [5] 0.019

HDAC6 (UniProt Q9UBN7)
inactive: [1] 0.029 | [2] 0.036 | [3] -0.017 | [4] -0.007 | [5] 0.042

GSTCD (UniProt Q8NEC7)
inactive: [1] -0.048 | [2] -0.048 | [3] -0.076 | [4] -0.055 | [5] 0.007

HBE1 (UniProt P02100)
inactive: [1] 0.028 | [2] -0.071 | [3] -0.032 | [4] -0.015 | [5] 0.043

GTF2H4 (UniProt Q92759)
inactive: [1] -0.08 | [2] 0.044 | [3] 0.039 | [4] 0.015 | [5] 0.02

GPX4 (UniProt P36969)
inactive: [1] 0.018 | [2] -0.01 | [3] 0.036 | [4] -0.03 | [5] 0.048

2 entries drawn at random from the list so far, as already listed:
GTF2H4 (UniProt Q92759)
inactive: [1] -0.08 | [2] 0.044 | [3] 0.039 | [4] 0.015 | [5] 0.02

HDAC6 (UniProt Q9UBN7)
inactive: [1] 0.029 | [2] 0.036 | [3] -0.017 | [4] -0.007 | [5] 0.042

(listing goes on)

HAUS3 (UniProt Q68CZ6)
inactive: [1] -0.035 | [2] 0.023 | [3] 0.051 | [4] -0.032 | [5] 0.064

HBG1 (UniProt P69891)
inactive: [1] 0.005 | [2] -0.064 | [3] -0.013 | [4] -0.006 | [5] 0.035

GUF1 (UniProt Q8N442)
inactive: [1] 0.088 | [2] -0.071 | [3] -0.374 | [4] -0.004 | [5] 0.009

GSTP1 (UniProt P09211)
inactive: [1] -0.018 | [2] 0.004 | [3] -0.003 | [4] -0.017 | [5] 0.035

GTF2B (UniProt Q00403)
inactive: [1] -0.049 | [2] 0.012 | [3] -0.006 | [4] -0.027 | [5] 0.017

H1-5 (UniProt P16401)
inactive: [1] 0.013 | [2] -0.009 | [3] -0.014 | [4] 0.104 | [5] 0.013

H2AFX (UniProt P16104)
inactive: [1] 0.088 | [2] -0.044 | [3] 0.022 | [4] 0.08 | [5] -0.041
